Percent effect of library compounds

Leishmania in macrophages: 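Cell assay of Leishmania donovani living inside macrophages; the read-out is not stated. Tested at 30 µM. The record gives no direction; compounds that gave an IC50 in retests scored well above the rest, so higher reads as stronger inhibition. About 69,000 compounds were tested under these conditions; 1.5% (about 1,000) showed 50% or more at least once.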
Toxoplasma: 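Assay of Toxoplasma gondii numbers, read through their beta-galactosidase reporter with a colour substrate. Tested at 10 µM. The record gives no direction; the compounds picked for IC50 retests had high values, so higher reads as fewer parasites. About 67,000 compounds were tested under these conditions; 0.38% (about 260) showed 50% or more at least once.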

The filed quantity is “Percent Effect” (%).
The controls that fix the scale are not given in the record; negative values are as filed.
The compounds are a random part of those screened.
Two or more numbers in one place are separate tests of the same structure; such repeats can differ widely.

For [H][C@]12C[C@@H](Cn3cncn3)N(c3nccs3)[C@@]1([H])CCN(C)C2 the result was Leishmania in macrophages: 28.64%; Toxoplasma: -0.5851%.
For COCC1CC2(CCNCC2)CN1Cc1csc(C)n1.O=C(O)C(F)(F)F.O=C(O)C(F)(F)F (centres undefined) the result was Leishmania in macrophages: 16.07%; Toxoplasma: -5.302%.
For Cc1cc(C)c(CNC(=O)NCC2CCCO2)c(=O)[nH]1 (centres undefined) the result was Leishmania in macrophages: -16.67%; Toxoplasma: 10.3%.
For Cc1cc(C)n(-c2ccccc2NC(=O)NCCS(=O)(=O)CC(C)C)n1 the result was Leishmania in macrophages: 0.2996%; Toxoplasma: -40.44%.
For CCCNc1cc(C(=O)N2CCOCC2)nc(C)n1 the result was Leishmania in macrophages: 6.621%; Toxoplasma: -10.11%.
For Cc1ccnc(NC(=O)c2ccc(C)o2)c1 the result was Leishmania in macrophages: -12.28%; Toxoplasma: 2.17%.
For O=C(O)C(F)(F)F.[H][C@@]12CCN(Cc3ccco3)[C@]1([H])CC[C@@H](C(=O)NCC1CC1)O2 the result was Leishmania in macrophages: 10.8%; Toxoplasma: 17.16%.
For Cn1nc(Cn2cccn2)c2c1CN(C1CCOCC1)C2.O=C(O)C(F)(F)F the result was Leishmania in macrophages: 13.95%; Toxoplasma: 1.036%.
For COc1cccc(N2CCC(CNCc3cccc(C#N)c3)C2)c1 (centres undefined) the result was Leishmania in macrophages: 30.91%; Toxoplasma: -3.388%.
For O=C(O)C(F)(F)F.[H][C@@]12CCN(S(C)(=O)=O)C[C@]1(C(=O)NCc1ccccn1)CCO2 the result was Leishmania in macrophages: 38.61%; Toxoplasma: -5.195%.
For CCn1nc(C)c2c1cnn2CCNS(C)(=O)=O the result was Leishmania in macrophages: 19.46%; Toxoplasma: -29.11%.
For CC(=O)N1CCC(CCc2ccnc(NC(=O)c3ccccn3)c2)CC1 the result was Leishmania in macrophages: 9.798%; Toxoplasma: -9.425%.
For Cc1ncc(CC(=O)N2CCCCC2CCN2CCCC2)c(=O)[nH]1 (centres undefined) the result was Leishmania in macrophages: 2.966%; Toxoplasma: 2.504%.
For CCn1cnnc1CNC(=O)N1CCC(O)CC1 the result was Leishmania in macrophages: 13.97%; Toxoplasma: -5.196%.
For CC(O)CN1CCN(C(=O)CN(C)c2ccc(Cl)cn2)CC1 (centres undefined) the result was Leishmania in macrophages: 18.5%; Toxoplasma: -6.463%.
For COc1ccc(CC(=O)N2CCCCC2Cn2cc(C)cn2)cc1F (centres undefined) the result was Leishmania in macrophages: 5.535%; Toxoplasma: 5.847%.
For [H][C@@]12COC[C@]1(COCc1ccccn1)CN(c1ncccn1)C2 the result was Leishmania in macrophages: 5.411%; Toxoplasma: 7.231%.
For O=C(c1cn(-c2cccc(Cl)c2F)nn1)N1CCCSCC1 the result was Leishmania in macrophages: 20.34% & 10.65%; Toxoplasma: 12.45%.
For [H][C@]12CC[C@]([H])(CN(C(=O)c3sccc3S(N)(=O)=O)C1)N(C)C2=O the result was Leishmania in macrophages: 21.03%; Toxoplasma: -2.373%.
For CN(Cc1nc(C2CC2)no1)C1CCCN(c2cccnn2)C1 (centres undefined) the result was Leishmania in macrophages: 37.69%.
For [H][C@@]12CS(=O)(=O)C[C@]1([H])N(C(=O)c1cnccn1)CCN2C(=O)C1CCC1 the result was Leishmania in macrophages: 2.222%; Toxoplasma: -5.424%.
For O=S(=O)(c1ccccc1F)N1CCCC(c2nccs2)C1 (centres undefined) the result was Leishmania in macrophages: -3.966% & 1.659%; Toxoplasma: -5.211%.
For CCn1nc(C)c(CNC(=O)c2nnc3ccc(Cl)cc3n2)c1C the result was Leishmania in macrophages: 38.89%; Toxoplasma: 1.465%.
For O=C(O)[C@@H]1CN(C(=O)CCCc2ccc(F)cc2)C[C@H]1C1CC1 the result was Leishmania in macrophages: 19.25%; Toxoplasma: -2.186%.
For NC(=O)c1cc2c(nc1Oc1cccc(CN3CCCC3)c1F)CCC2 the result was Leishmania in macrophages: 17.66%; Toxoplasma: 5.206%.
For CC(C)NC(=O)c1ccc(NC(=O)NC(C)c2ccccn2)cc1 (centres undefined) the result was Leishmania in macrophages: -13.87%; Toxoplasma: -2.731%.
For CC(C)OCc1noc(C2CC=CC2)n1 the result was Leishmania in macrophages: -5.473%; Toxoplasma: 21.49%.
For COc1cccc(CCC(=O)Nc2c(C)nn(C)c2C)c1OC the result was Leishmania in macrophages: 11.43%; Toxoplasma: 22.54%.
For Cc1nc(CNCc2c(C(C)C)nn(C)c2N2CCOCC2)cs1 the result was Leishmania in macrophages: 28.86%; Toxoplasma: 5.717%.
For O=C(O)C(F)(F)F.c1ccc(OCc2nnn3c2CN(c2ncccn2)CCC3)nc1 the result was Leishmania in macrophages: -5.185%; Toxoplasma: -1.755%.
For COc1cc(C(=O)N(C)Cc2cc(C(=O)O)c(C)o2)cc(OC)c1OC the result was Leishmania in macrophages: 0.5271%; Toxoplasma: 21.51%.
For CCCN1CC2(CCN(C)CC2)CC1C(=O)NCCn1ccc(C)n1 (centres undefined) the result was Leishmania in macrophages: 29.46%; Toxoplasma: -15.7%.
For CN1CCC(c2n[nH]c3ncccc23)C1.O=CO (centres undefined) the result was Leishmania in macrophages: 16.17%; Toxoplasma: 15.09%.
For CC(=O)N1CCC(N2CCOC[C@H]2c2nc(-c3ccccc3)c[nH]2)CC1 the result was Leishmania in macrophages: -6.756%; Toxoplasma: -1.058%.
For CC(=O)N1CCN([C@@H]2CC[C@@H](NC(=O)c3cc(C)cs3)[C@H]2O)CC1 the result was Leishmania in macrophages: 16.67% & 16.33%; Toxoplasma: 4.221%.

The first 3 entries again:

structure,Leishmania in macrophages,Toxoplasma
[H][C@]12C[C@@H](Cn3cncn3)N(c3nccs3)[C@@]1([H])CCN(C)C2,28.64,-0.5851
COCC1CC2(CCNCC2)CN1Cc1csc(C)n1.O=C(O)C(F)(F)F.O=C(O)C(F)(F)F (centres undefined),16.07,-5.302
Cc1cc(C)c(CNC(=O)NCC2CCCO2)c(=O)[nH]1 (centres undefined),-16.67,10.3

Source: ChEMBL document CHEMBL3988442, “University of Dundee, Small-Polar-MMV Screening Library” (2021).